Source: PMC10005955

The chains behind the UniProt entries cited, without tags or fusion partners.
UniProt Q9UHY1: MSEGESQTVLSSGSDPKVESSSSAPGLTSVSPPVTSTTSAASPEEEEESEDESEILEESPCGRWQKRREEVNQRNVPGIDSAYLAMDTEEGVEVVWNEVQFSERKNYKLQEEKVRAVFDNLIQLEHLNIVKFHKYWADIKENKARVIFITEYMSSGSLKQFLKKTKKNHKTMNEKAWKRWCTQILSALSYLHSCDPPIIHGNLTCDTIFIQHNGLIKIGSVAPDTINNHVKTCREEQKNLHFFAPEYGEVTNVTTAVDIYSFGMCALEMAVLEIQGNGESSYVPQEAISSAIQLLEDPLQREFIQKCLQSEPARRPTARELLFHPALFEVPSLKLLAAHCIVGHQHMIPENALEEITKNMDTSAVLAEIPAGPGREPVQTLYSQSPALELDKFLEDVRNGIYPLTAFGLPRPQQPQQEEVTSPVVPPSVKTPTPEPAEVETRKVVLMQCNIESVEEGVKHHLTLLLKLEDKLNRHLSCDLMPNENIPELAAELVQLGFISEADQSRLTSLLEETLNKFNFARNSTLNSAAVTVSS
UniProt Q8TCU6: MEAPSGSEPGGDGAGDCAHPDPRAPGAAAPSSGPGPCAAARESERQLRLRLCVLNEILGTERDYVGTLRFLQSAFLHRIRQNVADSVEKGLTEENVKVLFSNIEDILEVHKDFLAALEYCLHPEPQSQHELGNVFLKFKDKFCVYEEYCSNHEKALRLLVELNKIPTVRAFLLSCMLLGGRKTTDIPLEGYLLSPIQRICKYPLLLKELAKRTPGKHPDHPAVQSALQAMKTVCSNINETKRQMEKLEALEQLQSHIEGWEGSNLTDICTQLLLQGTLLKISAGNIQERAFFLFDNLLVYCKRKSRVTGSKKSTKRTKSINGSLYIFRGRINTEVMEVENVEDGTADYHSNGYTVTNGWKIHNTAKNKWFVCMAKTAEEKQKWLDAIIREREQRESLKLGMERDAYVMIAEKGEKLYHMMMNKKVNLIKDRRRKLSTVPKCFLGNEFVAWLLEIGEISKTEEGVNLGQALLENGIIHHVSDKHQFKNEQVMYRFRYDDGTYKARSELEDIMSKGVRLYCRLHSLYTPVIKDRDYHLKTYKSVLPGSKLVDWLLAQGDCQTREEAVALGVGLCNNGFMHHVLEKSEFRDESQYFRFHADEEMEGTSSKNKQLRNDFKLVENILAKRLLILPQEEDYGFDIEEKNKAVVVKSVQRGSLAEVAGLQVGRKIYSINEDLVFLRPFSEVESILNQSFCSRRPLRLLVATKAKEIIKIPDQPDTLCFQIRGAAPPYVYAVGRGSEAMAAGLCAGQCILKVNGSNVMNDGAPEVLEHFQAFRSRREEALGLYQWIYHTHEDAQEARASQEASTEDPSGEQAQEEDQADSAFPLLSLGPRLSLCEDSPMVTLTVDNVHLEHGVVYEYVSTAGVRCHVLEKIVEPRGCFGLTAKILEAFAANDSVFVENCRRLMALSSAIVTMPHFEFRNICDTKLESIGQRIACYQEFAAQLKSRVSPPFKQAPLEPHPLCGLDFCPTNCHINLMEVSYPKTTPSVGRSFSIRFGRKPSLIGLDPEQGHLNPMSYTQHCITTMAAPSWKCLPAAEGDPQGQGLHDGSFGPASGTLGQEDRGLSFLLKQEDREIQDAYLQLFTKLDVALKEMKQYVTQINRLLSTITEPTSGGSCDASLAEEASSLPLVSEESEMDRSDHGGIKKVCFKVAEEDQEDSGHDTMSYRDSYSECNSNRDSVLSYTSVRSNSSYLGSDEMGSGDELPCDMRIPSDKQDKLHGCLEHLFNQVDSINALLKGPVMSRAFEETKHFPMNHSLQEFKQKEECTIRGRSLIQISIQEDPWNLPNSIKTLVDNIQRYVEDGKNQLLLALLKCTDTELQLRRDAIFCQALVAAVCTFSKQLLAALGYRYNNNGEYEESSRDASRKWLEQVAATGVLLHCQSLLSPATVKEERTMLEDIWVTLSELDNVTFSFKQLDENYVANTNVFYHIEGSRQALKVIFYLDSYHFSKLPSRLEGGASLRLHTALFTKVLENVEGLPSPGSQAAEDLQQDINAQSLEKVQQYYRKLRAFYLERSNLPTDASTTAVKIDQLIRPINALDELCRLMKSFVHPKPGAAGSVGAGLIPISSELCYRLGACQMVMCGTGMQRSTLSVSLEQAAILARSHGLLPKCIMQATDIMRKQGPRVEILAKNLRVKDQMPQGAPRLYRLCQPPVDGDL
UniProt Q15370: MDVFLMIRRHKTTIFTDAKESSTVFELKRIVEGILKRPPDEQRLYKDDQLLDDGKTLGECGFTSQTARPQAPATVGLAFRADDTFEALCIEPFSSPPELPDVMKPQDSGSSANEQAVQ

Target: mycBioID2-NRBP1 (UniProt Q9UHY1)
Experiment: proximity labelling; BioID-MS: mycBioID2-NRBP1 stably expressed in MDA-MB-231_EcoR cells, 50 µM biotin for 20 h at 37 °C, modified RIPA lysate, streptavidin agarose beads at 4 °C for 22 h, MS; compared with the vector control, n = 3

Molecule | binding
P-Rex1 (from UniProt Q8TCU6 1-1659) | binds
TCEB2 (Elongin C) (from UniProt Q15370 1-118) | binds
Peroxiredoxin 1 (protein, UniProt Q06830 1-199) MSSGNAKIGHPAPNFKATAVMPDGQFKDISLSDYKGKYVVFFFYPLDFTFVCPTEIIAFSDRAEEFKKLNCQVIGASVDSHFCHLAWVNTPKKQGGLGPMNIPLVSDPKRTIAQDYGVLKADEGISFRGLFIIDDKGILRQITVNDLPVGRSVDETLRLVQAFQFTDKHGEVCPAGWKPGSDTIKPDVQKSKEYFSKQK | binds
Peroxiredoxin 2 (protein, UniProt P32119 1-198) MASGNARIGKPAPDFKATAVVDGAFKEVKLSDYKGKYVVLFFYPLDFTFVCPTEIIAFSNRAEDFRKLGCEVLGVSVDSQFTHLAWINTPRKEGGLGPLNIPLLADVTRRLSEDYGVLKTDEGIAYRGLFIIDGKGVLRQITVNDLPVGRSVDEALRLVQAFQYTDEHGEVCPAGWKPGSDTIKPNVDDSKEYFSKHN | binds
Peroxiredoxin 3 (protein, UniProt P30048 62-256) APAVTQHAPYFKGTAVVNGEFKDLSLDDFKGKYLVLFFYPLDFTFVCPTEIVAFSDKANEFHDVNCEVVAVSVDSHFSHLAWINTPRKNGGLGHMNIALLSDLTKQISRDYGVLLEGSGLALRGLFIIDPNGVIKHLSVNDLPVGRSVEETLRLVKAFQYVETHGEVCPANWTPDSPTIKPSPAASKEYFQKVNQ | binds

Other lines, results leading:

binding | Molecule
binds | TSC22D1 (protein, UniProt Q15714 1-1073) MHQPPESTAAAAAAADISARKMAHPAMFPRRGSGSGSASALNAAGTGVGSNATSSEDFPPPSLLQPPPPAASSTSGPQPPPPQSLNLLSQAQLQAQPLAPGGTQMKKKSGFQITSVTPAQISASISSNNSIAEDTESYDDLDESHTEDLSSSEILDVSLSRATDLGEPERSSSEETLNNFQEAETPGAVSPNQPHLPQPHLPHLPQQNVVINGNAHPHHLHHHHQIHHGHHLQHGHHHPSHVAVASASITGGPPSSPVSRKLSTTGSSDSITPVAPTSAVSSSGSPASVMTNMRAPSTTGGIGINSVTGTSTVNNVNITAVGSFNPNVTSSMLGNVNISTSNIPSAAGVSVGPGVTSGVNVNILSGMGNGTISSSAAVSSVPNAAAGMTGGSVSSQQQQPTVNTSRFRVVKLDSSSEPFKKGRWTCTEFYEKENAVPATEGVLINKVVETVKQNPIEVTSERESTSGSSVSSSVSTLSHYTESVGSGEMGAPTVVVQQQQQQQQQQQQQPALQGVTLQQMDFGSTGPQSIPAVSIPQSISQSQISQVQLQSQELSYQQKQGLQPVPLQATMSAATGIQPSPVNVVGVTSALGQQPSISSLAQPQLPYSQAAPPVQTPLPGAPPPQQLQYGQQQPMVSTQMAPGHVKSVTQNPASEYVQQQPILQTAMSSGQPSSAGVGAGTTVIPVAQPQGIQLPVQPTAVPAQPAGASVQPVGQAPAAVSAVPTGSQIANIGQQANIPTAVQQPSTQVPPSVIQQGAPPSSQVVPPAQTGIIHQGVQTSAPSLPQQLVIASQSSLLTVPPQPQGVEPVAQGIVSQQLPAVSSLPSASSISVTSQVSSTGPSGMPSAPTNLVPPQNIAQTPATQNGNLVQSVSQPPLIATNTNLPLAQQIPLSSTQFSAQSLAQAIGSQIEDARRAAEPSLVGLPQTISGDSGGMSAVSDGSSSSLAASASLFPLKVLPLTTPLVDGEDESSSGASVVAIDNKIEQAMDLVKSHLMYAVREEVEVLKEQIKELIEKNSQLEQENNLLKTLASPEQLAQFQAQLQTGSPPATTQPQGTTQPPAQPASQGSGPTA
binds | Thioredoxin-like 1 (TXNL1) (protein, UniProt O43396 1-289) MVGVKPVGSDPDFQPELSGAGSRLAVVKFTMRGCGPCLRIAPAFSSMSNKYPQAVFLEVDVHQCQGTAATNNISATPTFLFFRNKVRIDQYQGADAVGLEEKIKQHLENDPGSNEDTDIPKGYMDLMPFINKAGCECLNESDEHGFDNCLRKDTTFLESDCDEQLLITVAFNQPVKLYSMKFQGPDNGQGPKYVKIFINLPRSMDFEEAERSEPTQALELTEDDIKEDGIVPLRYVKFQNVNSVTIFVQSNQGEEETTRISYFTFIGTPVQATNMNDFKRVVGKKGESH
binds | TSC22D4 (protein, UniProt Q9Y3Q8 1-395) MSGGKKKSSFQITSVTTDYEGPGSPGASDPPTPQPPTGPPPRLPNGEPSPDPGGKGTPRNGSPPPGAPSSRFRVVKLPHGLGEPYRRGRWTCVDVYERDLEPHSFGGLLEGIRGASGGAGGRSLDSRLELASLGLGAPTPPSGLSQGPTSWLRPPPTSPGPQARSFTGGLGQLVVPSKAKAEKPPLSASSPQQRPPEPETGESAGTSRAATPLPSLRVEAEAGGSGARTPPLSRRKAVDMRLRMELGAPEEMGQVPPLDSRPSSPALYFTHDASLVHKSPDPFGAVAAQKFSLAHSMLAISGHLDSDDDSGSGSLVGIDNKIEQAMDLVKSHLMFAVREEVEVLKEQIRELAERNAALEQENGLLRALASPEQLAQLPSSGVPRLGPPAPNGPSV

No constants are given. Whether binding was seen depends on the method and setting. Binding seen in cells or lysates may run through a third protein. A yes stands for co-enrichment or nearness to the bait. Other partners may have been found.
